Record: PubChem BioAssay AID1259254 (NCATS, 2017)

- Assay: 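Finding genes that stop cells copying their DNA twice in one cycle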 (primary screen)
- System: human HCT116 colorectal cancer cells
- Reagent: single siRNA against human genes
- Duration: 3 days
- Measured: 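Nuclei stained with Hoechst and imaged; cell-cycle phase assigned by DNA content; G2 share scaled per plate, non-targeting siRNA 0%, GMNN siRNA 100%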
- Direction: G2 robust z-score: higher = more G2 cells, more excess DNA replication
- Hit rule: 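Active siRNAs have a G2 robust z of 5 or more median absolute deviations over the median, which in these data means about 38% or higher of GMNN control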
The whole screen tested about 59,000 reagents; shown is an unselected part. About 1,550 of all reagents (2.6%) count as active. 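G2 share is only a proxy for re-replication; each gene was hit by three separate siRNAs, and active genes were retested.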 Unmarked entries are inactive. Further read-outs or replicates are left out here. The record does not give: the amount of reagent.

With LGSN [SID160740998], what was measured?
G2 robust z-score: -1.35

What did the screen give for LGSN [SID160740999]?
G2 robust z-score: -0.333

Which result is listed for LGSN [SID160741000]?
G2 robust z-score: -1.1

With SPOCD1 [SID160753828], how do the results read?
G2 robust z-score: 0.51

With SPOCD1 [SID160753829], what was measured?
G2 robust z-score: -0.828

With SPOCD1 [SID160753830], what was measured?
G2 robust z-score: 1.17

How did the screen score ZSWIM4 [SID160748299]?
G2 robust z-score: 0.7

What is on record for ZSWIM4 [SID160748300]?
G2 robust z-score: 0.105

For ZSWIM4 [SID160748302], how do the results read?
G2 robust z-score: -0.283

For FAM151B [SID160760266], what does the deposit list?
G2 robust z-score: -0.756

For FAM151B [SID160760267], what does the deposit list?
G2 robust z-score: 0.354

With FAM151B [SID160760268], how do the results read?
G2 robust z-score: 0.0433

What did the screen give for ST6GALNAC2 [SID160728849]?
G2 robust z-score: 3.4

With ST6GALNAC2 [SID160728850], how do the results read?
G2 robust z-score: -0.417

What is on record for ST6GALNAC2 [SID160730460]?
G2 robust z-score: -0.03

Sorted by “G2 robust z-score” (descending): some entries from above.
ZSWIM4 [SID160748300]: G2 robust z-score = 0.105
ZSWIM4 [SID160748302]: G2 robust z-score = -0.283

The listing continues:
With LYRM7 [SID160753760], how do the results read?
G2 robust z-score: 0.0427

With LYRM7 [SID160753761], how do the results read?
G2 robust z-score: -0.213

With LYRM7 [SID160753762], what does the deposit list?
G2 robust z-score: -0.654

For SHISA6 [SID160765828], what does the deposit list?
G2 robust z-score: 2.24

What is on record for SHISA6 [SID160765829]?
G2 robust z-score: -0.437

For SHISA6 [SID160765830], how do the results read?
G2 robust z-score: 0.186

For CFAP126 [SID160762534], what was measured?
G2 robust z-score: -1

Which result is listed for CFAP126 [SID160762535]?
G2 robust z-score: -0.000276

With CFAP126 [SID160762536], how do the results read?
G2 robust z-score: 1.85
